# Experimental data reported in the supplement of paper PMC5949888.
# Most values lie at the floor of the assay. Slopes are relative: functional sequences can read slightly below zero.
# Test system: Saccharomyces cerevisiae PS128 hsf1 delta, HSF1(1-493) fusion
# Assay: growth estimate (transactivation domain function in HSF1 fusion, heat-shock survival) (a.u. (slope of normalised read count over time)); higher = stronger growth at 37°C, i.e. more transactivation activity
# Settings: library: random library
row,Substance,growth estimate
1,AKSYGPVWF,< -0.25
2,AMITRMSRNWHPRVTAPRIS,< -0.25
3,SLLVRMVGASKRSRLE,< -0.25
4,RQRRSIVTQS,< -0.25
5,ELNC,< -0.25
6,RLYASVSRGHPAPERINTDN,< -0.25
7,RVPKGHDSLPVRRASVLN,< -0.25
8,LAIRALVRVIVRVGGEVVAQ,< -0.25
9,RRSIQWVSA,< -0.25
10,GGMA,< -0.25
11,GEHRVAVHVHGSMRNTTSLW,< -0.25
12,TCMNVIFASRY,< -0.25
13,NLRTLS,< -0.25
14,FRSHKRSKRGLTQSTGAIDQ,< -0.25
15,GNSQFS,< -0.25
16,GRASNPEDRHDATRTSASQR,< -0.25
17,ACSVYQLQVFDLSPSCSSPF,-0.239
18,LILTTCARGAWRTAPKS,< -0.25
19,YRTALSRRISETLSRRLSFS,< -0.25
20,PFDVAGSLTRFPWDGRALSN,< -0.25
21,GSCLCEGGGQSAKKSLHPHS,< -0.25
22,PPF,< -0.25
23,QRAS,< -0.25
24,YLACS,< -0.25
25,HSARPERRVCK,< -0.25

row,Substance,growth estimate
1,GSYQRHNAALFILATYSTLR,< -0.25
2,QTGVRSI,< -0.25
3,VWVGTRSEHRGTVIGVTHFA,< -0.25
4,IICVQRRIYPVLGVPGTQCL,< -0.25
5,PGDTSPSCCG,< -0.25
6,YDGARPITAIEY,< -0.25
7,EKAERV,< -0.25
8,RSTWRAEKESTMQE,< -0.25
9,SCYLIVVSPIAAAPSLRIEG,-0.24
10,VERTNWVT,< -0.25
11,SSRRARLSHRPSPYRRRAAS,< -0.25
12,HWAFRWDRRSLPTQWVCAAC,< -0.25
13,LDIPYYSISSDYFRRAEQGR,< -0.25
14,GMCGKSVYV,< -0.25
15,RTIGTHIKEDCRIARIKVRP,< -0.25
16,EPPVRCSVTRKTCRTLHTLQ,< -0.25
17,PCDYRISHEVMG,< -0.25
18,SEFEETDM,< -0.25
19,NFNVTNRVLPRASVWVITRT,< -0.25
20,QGSGV,< -0.25
21,LGQRFERSGLSEGAVKM,< -0.25
22,VGT,< -0.25
23,SNGV,< -0.25
24,RQSRDDMQIFIVDPRRHRFV,< -0.25
25,CVTLCMLPVDYIRPPTNIRD,< -0.25

row,Substance,growth estimate
1,TRNRGRGVPFWLEVIYVGFW,-0.246
2,SCR,< -0.25
3,TLGYRVGVFLWQNTL,< -0.25
4,ATRESASVCAMRDTVVGAAP,< -0.25
5,FVLKE,< -0.25
6,DKSQ,< -0.25
7,KDRSMRASHTHVIIRLVGNG,< -0.25
8,IYALK,< -0.25
9,PVHGVGDHGGSQWVVVLCLN,< -0.25
10,ESRENHGIDAG,< -0.25
11,VMVPWTRRYNCLVCSYRADV,-0.248
12,RSTKIPKVVHGGGATD,< -0.25
13,TTVGAPGHLV,< -0.25
14,GSRSCD,< -0.25
15,GLRCAPETSSVN,< -0.25
16,DSDIFESKNGHGFKSIKPVP,< -0.25
17,PPPKKD,< -0.25
18,GQPVRPPRQGA,< -0.25
19,FERWFDNLLPLIAGACQ,< -0.25
20,ILRVFI,< -0.25
21,LPP,< -0.25
22,PVQVS,< -0.25
23,STTPRASVGPVIRYIGHPAK,< -0.25
24,IVTFPSDAGQGNRPWT,< -0.25
25,IRVGRYGKRAIEPCSLLQRV,-0.246

# 19 entries from above, as tab-separated lines.
row	Substance	growth estimate
3	TLGYRVGVFLWQNTL	< -0.25
4	ATRESASVCAMRDTVVGAAP	< -0.25
5	FVLKE	< -0.25
7	KDRSMRASHTHVIIRLVGNG	< -0.25
8	IYALK	< -0.25
9	PVHGVGDHGGSQWVVVLCLN	< -0.25
10	ESRENHGIDAG	< -0.25
11	VMVPWTRRYNCLVCSYRADV	-0.248
12	RSTKIPKVVHGGGATD	< -0.25
14	GSRSCD	< -0.25
15	GLRCAPETSSVN	< -0.25
16	DSDIFESKNGHGFKSIKPVP	< -0.25
17	PPPKKD	< -0.25
18	GQPVRPPRQGA	< -0.25
19	FERWFDNLLPLIAGACQ	< -0.25
20	ILRVFI	< -0.25
21	LPP	< -0.25
22	PVQVS	< -0.25
24	IVTFPSDAGQGNRPWT	< -0.25

# Next part.

row,Substance,growth estimate
1,WMH,-0.245
2,LLVWLEVYVSAPLLVCPLAW,< -0.25
3,RFEVEALATSHICRGA,< -0.25
4,GEAWELIPLAYDGPPGES,< -0.25
5,DMADIPCVKINRRRGWVYAE,< -0.25
6,VGNVKRTTISGKGPIRPHGV,< -0.25
7,RTECWTGASLQVANCHIRQP,< -0.25
8,QLVRIYWPSRYKIA,< -0.25
9,WERIG,-0.245
10,LLVQFPASGV,< -0.25
11,RLHLLGCVKFVSKINESALY,< -0.25
12,SWGIAQ,< -0.25
13,QRTTKFLRIQGVSSGSSCLN,< -0.25
14,SSAKKVISINLRYQIAVGYS,< -0.25
15,TIGHVPNLPAQEHLG,< -0.25
16,QRNVAFRSD,< -0.25
17,SDIPELMHDRSYPRMGPSLG,< -0.25
18,VSSAD,< -0.25
19,RRV,< -0.25
20,PEIGNWGL,< -0.25
21,NTQTRRVHGKSGFH,< -0.25
22,SPFII,< -0.25
23,IFLTLFFSRAPTVARCAVHF,< -0.25
24,SGTRGEHLR,< -0.25
25,RDPSDGARSLRAKDAHITVI,< -0.25
